Data taken from the supplement of paper PMC10849652.
Some of the results follow.

Protein sequences, listed by entry. Tags and fused reporters are not part of them. Lines headed by an entry give the natural chain unless they say otherwise; changes in a name come on top.
UniProt O75934: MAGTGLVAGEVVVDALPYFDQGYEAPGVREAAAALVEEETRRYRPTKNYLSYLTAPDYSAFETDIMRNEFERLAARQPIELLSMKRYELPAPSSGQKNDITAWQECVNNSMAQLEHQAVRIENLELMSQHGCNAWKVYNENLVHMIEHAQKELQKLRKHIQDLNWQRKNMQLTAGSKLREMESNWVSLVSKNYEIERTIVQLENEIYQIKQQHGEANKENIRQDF
UniProt Q5VW32: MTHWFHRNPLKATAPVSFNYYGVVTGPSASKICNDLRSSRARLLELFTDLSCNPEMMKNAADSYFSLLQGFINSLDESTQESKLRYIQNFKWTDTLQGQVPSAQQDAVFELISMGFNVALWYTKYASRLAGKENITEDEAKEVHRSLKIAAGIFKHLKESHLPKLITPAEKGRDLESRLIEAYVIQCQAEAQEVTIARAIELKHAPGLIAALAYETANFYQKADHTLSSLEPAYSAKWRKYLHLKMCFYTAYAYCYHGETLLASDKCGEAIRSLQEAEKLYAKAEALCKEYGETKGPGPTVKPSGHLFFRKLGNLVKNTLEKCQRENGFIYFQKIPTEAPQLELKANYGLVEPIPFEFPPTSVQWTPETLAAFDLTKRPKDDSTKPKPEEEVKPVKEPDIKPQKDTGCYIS
UniProt P46379: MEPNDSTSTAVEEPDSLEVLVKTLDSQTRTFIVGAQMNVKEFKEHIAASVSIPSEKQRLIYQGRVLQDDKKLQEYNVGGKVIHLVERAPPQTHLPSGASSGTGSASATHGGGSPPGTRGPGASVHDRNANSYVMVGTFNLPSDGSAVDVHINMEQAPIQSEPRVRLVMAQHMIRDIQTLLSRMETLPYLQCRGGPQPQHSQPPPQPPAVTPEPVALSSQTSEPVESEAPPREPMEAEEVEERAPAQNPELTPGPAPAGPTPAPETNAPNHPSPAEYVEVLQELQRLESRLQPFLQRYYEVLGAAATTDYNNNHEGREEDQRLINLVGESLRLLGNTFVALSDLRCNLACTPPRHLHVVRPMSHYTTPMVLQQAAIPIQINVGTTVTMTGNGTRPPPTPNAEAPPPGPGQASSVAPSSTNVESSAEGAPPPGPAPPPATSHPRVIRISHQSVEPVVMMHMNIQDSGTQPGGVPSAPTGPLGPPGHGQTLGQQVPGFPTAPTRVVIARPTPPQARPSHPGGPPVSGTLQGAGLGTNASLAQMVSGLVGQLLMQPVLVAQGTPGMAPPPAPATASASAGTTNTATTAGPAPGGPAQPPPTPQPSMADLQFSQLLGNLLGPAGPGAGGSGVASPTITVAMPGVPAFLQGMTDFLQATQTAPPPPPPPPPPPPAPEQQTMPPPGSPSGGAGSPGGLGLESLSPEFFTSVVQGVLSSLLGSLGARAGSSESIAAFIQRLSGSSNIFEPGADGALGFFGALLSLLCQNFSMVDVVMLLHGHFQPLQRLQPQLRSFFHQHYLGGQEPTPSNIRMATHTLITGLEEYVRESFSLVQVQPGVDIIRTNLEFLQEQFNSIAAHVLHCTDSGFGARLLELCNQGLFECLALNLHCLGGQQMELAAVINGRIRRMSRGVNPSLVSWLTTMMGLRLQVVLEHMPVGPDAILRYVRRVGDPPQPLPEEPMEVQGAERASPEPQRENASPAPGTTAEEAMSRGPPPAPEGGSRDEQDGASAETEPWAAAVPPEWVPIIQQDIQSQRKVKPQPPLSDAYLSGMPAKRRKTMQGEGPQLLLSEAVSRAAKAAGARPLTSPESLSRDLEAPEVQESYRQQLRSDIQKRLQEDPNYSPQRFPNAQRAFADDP
UniProt Q6PJG6: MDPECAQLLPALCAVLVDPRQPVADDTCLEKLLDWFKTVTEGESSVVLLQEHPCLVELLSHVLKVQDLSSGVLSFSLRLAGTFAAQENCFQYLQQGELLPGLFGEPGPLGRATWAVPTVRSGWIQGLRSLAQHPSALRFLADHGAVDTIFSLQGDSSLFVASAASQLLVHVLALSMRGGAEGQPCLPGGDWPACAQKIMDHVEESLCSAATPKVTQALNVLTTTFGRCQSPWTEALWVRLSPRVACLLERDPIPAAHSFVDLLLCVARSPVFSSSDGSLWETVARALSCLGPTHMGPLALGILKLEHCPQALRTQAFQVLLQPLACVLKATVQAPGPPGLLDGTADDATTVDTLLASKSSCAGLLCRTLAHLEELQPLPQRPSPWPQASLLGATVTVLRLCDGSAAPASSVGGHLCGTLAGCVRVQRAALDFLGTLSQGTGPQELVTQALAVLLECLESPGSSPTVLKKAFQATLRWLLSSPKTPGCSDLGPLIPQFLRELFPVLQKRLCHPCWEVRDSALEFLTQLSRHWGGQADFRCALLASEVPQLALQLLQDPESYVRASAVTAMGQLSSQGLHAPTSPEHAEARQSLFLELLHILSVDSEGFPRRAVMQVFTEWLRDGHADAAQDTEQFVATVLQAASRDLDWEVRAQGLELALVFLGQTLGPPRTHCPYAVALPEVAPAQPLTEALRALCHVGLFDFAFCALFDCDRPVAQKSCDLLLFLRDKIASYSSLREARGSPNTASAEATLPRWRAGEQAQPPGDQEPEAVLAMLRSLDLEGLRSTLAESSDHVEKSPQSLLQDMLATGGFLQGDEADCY
UniProt Q9NUP1: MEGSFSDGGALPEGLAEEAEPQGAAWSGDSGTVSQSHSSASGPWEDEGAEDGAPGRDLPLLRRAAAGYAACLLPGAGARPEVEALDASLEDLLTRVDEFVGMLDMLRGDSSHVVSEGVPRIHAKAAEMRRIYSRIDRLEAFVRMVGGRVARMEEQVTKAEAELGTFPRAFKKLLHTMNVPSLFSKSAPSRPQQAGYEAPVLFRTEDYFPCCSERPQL
UniProt Q07817, whole entry, looked up: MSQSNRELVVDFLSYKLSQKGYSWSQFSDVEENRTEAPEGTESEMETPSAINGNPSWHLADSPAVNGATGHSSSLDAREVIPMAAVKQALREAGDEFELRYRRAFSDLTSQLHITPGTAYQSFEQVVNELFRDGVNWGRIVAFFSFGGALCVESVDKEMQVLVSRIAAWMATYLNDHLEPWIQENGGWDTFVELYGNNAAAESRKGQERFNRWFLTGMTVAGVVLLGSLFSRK
UniProt Q8WXE1: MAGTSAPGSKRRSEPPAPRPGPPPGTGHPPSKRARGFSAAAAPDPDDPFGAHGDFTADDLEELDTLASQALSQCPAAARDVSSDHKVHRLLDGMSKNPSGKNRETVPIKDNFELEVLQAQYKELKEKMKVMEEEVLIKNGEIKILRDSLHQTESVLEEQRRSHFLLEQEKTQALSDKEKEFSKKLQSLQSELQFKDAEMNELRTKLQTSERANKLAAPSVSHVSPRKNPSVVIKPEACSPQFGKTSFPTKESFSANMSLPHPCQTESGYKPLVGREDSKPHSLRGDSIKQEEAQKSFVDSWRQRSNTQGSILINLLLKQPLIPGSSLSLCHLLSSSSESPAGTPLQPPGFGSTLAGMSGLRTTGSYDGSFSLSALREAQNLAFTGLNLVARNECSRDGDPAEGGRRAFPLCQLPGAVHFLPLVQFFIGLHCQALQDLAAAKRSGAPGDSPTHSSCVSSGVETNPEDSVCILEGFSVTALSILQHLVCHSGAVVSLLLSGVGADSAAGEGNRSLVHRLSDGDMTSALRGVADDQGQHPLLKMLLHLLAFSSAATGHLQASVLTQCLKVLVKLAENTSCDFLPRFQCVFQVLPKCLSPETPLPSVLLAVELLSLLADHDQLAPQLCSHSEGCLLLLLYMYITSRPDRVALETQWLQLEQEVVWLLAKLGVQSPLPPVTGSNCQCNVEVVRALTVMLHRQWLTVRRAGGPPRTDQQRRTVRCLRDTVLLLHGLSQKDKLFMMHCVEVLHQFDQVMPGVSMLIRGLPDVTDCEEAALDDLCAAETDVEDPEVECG
UniProt O60512: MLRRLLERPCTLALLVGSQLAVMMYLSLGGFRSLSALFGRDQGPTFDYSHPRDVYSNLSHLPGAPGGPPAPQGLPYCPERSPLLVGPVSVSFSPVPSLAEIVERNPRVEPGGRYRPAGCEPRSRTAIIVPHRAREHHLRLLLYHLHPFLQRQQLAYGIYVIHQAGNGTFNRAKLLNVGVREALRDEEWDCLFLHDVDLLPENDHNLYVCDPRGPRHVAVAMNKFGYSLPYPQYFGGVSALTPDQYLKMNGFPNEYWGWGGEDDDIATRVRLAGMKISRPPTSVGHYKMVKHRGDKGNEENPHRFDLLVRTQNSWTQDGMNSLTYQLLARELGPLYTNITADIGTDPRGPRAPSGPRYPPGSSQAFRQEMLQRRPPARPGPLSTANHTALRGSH
UniProt Q07812, whole entry, looked up: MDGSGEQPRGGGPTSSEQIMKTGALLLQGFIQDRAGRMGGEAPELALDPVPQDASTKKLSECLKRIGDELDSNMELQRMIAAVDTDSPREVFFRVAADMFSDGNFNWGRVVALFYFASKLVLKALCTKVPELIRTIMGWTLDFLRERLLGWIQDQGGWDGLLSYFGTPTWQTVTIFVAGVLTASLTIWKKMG
UniProt O95817, whole entry, looked up: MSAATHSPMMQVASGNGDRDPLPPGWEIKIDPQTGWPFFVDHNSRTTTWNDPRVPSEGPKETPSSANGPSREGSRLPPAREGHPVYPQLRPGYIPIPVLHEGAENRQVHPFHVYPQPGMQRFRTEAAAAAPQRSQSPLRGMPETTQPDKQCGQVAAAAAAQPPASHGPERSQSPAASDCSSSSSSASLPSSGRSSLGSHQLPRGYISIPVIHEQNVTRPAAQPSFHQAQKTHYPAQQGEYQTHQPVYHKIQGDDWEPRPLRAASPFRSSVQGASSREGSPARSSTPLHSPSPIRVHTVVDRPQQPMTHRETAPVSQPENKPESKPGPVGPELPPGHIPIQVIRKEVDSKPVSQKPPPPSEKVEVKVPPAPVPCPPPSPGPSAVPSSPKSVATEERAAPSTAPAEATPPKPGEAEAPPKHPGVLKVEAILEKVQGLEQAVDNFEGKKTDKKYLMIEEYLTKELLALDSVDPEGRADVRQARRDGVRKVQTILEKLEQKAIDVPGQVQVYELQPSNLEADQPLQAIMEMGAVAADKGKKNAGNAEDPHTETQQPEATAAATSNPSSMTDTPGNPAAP
UniProt Q14692: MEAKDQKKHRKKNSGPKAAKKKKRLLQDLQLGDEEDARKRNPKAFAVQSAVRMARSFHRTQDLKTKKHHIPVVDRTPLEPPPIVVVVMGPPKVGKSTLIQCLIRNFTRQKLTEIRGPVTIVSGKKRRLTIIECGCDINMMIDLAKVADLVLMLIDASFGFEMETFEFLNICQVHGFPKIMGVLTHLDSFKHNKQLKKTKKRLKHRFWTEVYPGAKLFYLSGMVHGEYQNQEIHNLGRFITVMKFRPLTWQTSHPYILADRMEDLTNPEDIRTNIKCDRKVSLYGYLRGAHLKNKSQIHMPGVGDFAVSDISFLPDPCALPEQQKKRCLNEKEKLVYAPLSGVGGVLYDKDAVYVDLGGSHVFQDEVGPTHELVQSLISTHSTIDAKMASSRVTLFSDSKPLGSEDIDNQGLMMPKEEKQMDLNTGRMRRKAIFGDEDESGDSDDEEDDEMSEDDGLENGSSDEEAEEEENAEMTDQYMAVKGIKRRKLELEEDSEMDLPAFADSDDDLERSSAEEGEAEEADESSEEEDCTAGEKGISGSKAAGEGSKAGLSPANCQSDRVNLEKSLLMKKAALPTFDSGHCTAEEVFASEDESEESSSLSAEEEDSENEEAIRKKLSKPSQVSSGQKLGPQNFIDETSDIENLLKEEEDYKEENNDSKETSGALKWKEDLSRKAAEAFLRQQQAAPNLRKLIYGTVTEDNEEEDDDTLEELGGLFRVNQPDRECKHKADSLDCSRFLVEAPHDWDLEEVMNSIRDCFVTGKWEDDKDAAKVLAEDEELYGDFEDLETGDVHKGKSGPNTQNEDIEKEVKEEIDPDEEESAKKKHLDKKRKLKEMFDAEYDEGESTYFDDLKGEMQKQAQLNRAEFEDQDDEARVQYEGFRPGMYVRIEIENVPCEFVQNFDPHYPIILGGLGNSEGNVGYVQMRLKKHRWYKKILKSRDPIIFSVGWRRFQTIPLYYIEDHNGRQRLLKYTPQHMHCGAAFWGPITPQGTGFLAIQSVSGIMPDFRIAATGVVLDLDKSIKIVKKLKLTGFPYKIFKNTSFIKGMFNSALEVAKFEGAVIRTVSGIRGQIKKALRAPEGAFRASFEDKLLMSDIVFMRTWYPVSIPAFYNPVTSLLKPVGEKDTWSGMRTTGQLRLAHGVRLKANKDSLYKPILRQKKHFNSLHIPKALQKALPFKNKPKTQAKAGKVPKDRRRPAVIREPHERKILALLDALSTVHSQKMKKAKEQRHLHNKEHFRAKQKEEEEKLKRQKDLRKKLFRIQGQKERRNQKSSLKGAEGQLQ
UniProt O15155: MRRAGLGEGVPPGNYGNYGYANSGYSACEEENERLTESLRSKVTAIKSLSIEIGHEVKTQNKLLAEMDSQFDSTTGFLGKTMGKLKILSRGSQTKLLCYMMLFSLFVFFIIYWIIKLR
UniProt Q8TDH9: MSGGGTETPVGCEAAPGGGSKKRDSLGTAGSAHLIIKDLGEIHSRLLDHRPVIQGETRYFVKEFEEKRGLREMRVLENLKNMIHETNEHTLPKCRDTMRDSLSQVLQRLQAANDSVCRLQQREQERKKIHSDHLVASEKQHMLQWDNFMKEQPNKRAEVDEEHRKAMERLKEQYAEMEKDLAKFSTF

Compound: Cc1ccc(-n2nc(C(C)(C)C)cc2NC(=O)Nc2ccc(OCCN3CCOCC3)c3ccccc23)cc1 [doramapimod]
Test: log2 fold change, soluble protein after heating vs DMSO (PISA); higher = thermal stabilisation; K562 cells, 10 uM, 30 min; active = over 0.2 and 3.5 SD of the protein, either way, in both replicates (recomputed)
Outline: (§1)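 K562 cells at 2×10^6 cells/mL were treated for 30 min with 10 μM compound, and aliquots were heated for 3 min over 48°C-58°C before pooling. Extraction used PBS with 0.5% NP-40 at 4°C, and soluble protein was the supernatant after 21,000xg for 90 min, measured by TMTpro 16plex LC-MS/MS with channel sums equalised. Thermal stability values, relative to control samples and from duplicates, are log2 fold changes.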

Target	log2 fold change
BCS1L (UniProt Q9Y276)	inactive: -0.005
BRCC3 (UniProt P46736)	inactive: 0.003
BCL2L2 isoform 2 (UniProt Q92843)	inactive: -0.015
BLMH (UniProt Q13867)	inactive: 0
BOLA3 (UniProt Q53S33)	inactive: -0.022
BCL2L13 (UniProt Q9BXK5)	inactive: 0.014
BACH1 (UniProt O14867)	inactive: 0.008
BLOC1S1 (UniProt P78537)	inactive: 0.055
BCAS2 (UniProt O75934)	inactive: 0.022
AZGP1 (UniProt P25311)	inactive: -0.381
BAK1 (UniProt Q16611)	inactive: -0.009
BROX (UniProt Q5VW32)	inactive: -0.068
BORCS6 (UniProt Q96GS4)	inactive: 0.015
BAG6 isoform 3 (UniProt P46379)	inactive: 0.016

Compound: Cc1ccc(C(=O)N(CCCN)[C@@H](c2nc3cc(Cl)ccc3c(=O)n2Cc2ccccc2)C(C)C)cc1 [ispinesib]
Test: as above
Outline: as §1

Target	log2 fold change
BRAT1 (UniProt Q6PJG6)	inactive: -0.046
BLOC1S4 (UniProt Q9NUP1)	inactive: -0.071
ATXN2 (UniProt Q99700)	inactive: -0.053
BCL2L1 (UniProt Q07817)	inactive: 0.13
ATRIP (UniProt Q8WXE1)	inactive: -0.043
B4GALT3 (UniProt O60512)	inactive: 0.007
BLVRA (UniProt P53004)	inactive: -0.041
BICD2 isoform 2 (UniProt Q8TD16)	inactive: 0.027
BABAM1 (UniProt Q9NWV8)	inactive: -0.008
BAX isoform 2 (UniProt Q07812)	inactive: 0.064
BCKDHA (UniProt P12694)	inactive: -0.056
BNIP2 (UniProt J3KN59)	inactive: -0.183
BOLA2 (UniProt Q9H3K6)	inactive: 0.092
BIRC2 (UniProt Q13490)	inactive: -0.053
BAG3 (UniProt O95817)	inactive: 0
BAHCC1 (UniProt Q9P281)	inactive: -0.19
BMS1 (UniProt Q14692)	inactive: -0.141
BCKDK (UniProt O14874)	inactive: -0.033

Target	log2 fold change
BET1 (UniProt O15155)	inactive: -0.005
BPNT1 (UniProt O95861)	inactive: 0.116
BLOC1S5 (UniProt Q8TDH9)	inactive: 0.034
B3GAT3 (UniProt O94766)	inactive: 0.042
BIRC6 (UniProt Q9NR09)	inactive: -0.022
BCS1L (UniProt Q9Y276)	inactive: 0.034
BRCC3 (UniProt P46736)	inactive: 0.041
BCL2L2 isoform 2 (UniProt Q92843)	inactive: 0.03
BLMH (UniProt Q13867)	inactive: 0.03
BOLA3 (UniProt Q53S33)	inactive: 0.007
BCL2L13 (UniProt Q9BXK5)	inactive: 0.013
BACH1 (UniProt O14867)	inactive: -0.009
BLOC1S1 (UniProt P78537)	inactive: 0.109
BCAS2 (UniProt O75934)	inactive: 0.116
AZGP1 (UniProt P25311)	inactive: 0.212
BROX (UniProt Q5VW32)	inactive: 0.077
BORCS6 (UniProt Q96GS4)	inactive: -0.094
BAG6 isoform 3 (UniProt P46379)	inactive: 0.003
